Laboratory results reported in publication doi:10.1101/2025.09.10.675378 (bioRxiv, 2025).
No constants are given. Whether binding was seen depends on the method and setting. In cells and extracts the contact can be indirect. Here binding means that the protein was enriched with, or labelled near, the bait; the list need not be complete.

Chains of the proteins cited; added tags and fusions are not shown.
UniProt Q9P219: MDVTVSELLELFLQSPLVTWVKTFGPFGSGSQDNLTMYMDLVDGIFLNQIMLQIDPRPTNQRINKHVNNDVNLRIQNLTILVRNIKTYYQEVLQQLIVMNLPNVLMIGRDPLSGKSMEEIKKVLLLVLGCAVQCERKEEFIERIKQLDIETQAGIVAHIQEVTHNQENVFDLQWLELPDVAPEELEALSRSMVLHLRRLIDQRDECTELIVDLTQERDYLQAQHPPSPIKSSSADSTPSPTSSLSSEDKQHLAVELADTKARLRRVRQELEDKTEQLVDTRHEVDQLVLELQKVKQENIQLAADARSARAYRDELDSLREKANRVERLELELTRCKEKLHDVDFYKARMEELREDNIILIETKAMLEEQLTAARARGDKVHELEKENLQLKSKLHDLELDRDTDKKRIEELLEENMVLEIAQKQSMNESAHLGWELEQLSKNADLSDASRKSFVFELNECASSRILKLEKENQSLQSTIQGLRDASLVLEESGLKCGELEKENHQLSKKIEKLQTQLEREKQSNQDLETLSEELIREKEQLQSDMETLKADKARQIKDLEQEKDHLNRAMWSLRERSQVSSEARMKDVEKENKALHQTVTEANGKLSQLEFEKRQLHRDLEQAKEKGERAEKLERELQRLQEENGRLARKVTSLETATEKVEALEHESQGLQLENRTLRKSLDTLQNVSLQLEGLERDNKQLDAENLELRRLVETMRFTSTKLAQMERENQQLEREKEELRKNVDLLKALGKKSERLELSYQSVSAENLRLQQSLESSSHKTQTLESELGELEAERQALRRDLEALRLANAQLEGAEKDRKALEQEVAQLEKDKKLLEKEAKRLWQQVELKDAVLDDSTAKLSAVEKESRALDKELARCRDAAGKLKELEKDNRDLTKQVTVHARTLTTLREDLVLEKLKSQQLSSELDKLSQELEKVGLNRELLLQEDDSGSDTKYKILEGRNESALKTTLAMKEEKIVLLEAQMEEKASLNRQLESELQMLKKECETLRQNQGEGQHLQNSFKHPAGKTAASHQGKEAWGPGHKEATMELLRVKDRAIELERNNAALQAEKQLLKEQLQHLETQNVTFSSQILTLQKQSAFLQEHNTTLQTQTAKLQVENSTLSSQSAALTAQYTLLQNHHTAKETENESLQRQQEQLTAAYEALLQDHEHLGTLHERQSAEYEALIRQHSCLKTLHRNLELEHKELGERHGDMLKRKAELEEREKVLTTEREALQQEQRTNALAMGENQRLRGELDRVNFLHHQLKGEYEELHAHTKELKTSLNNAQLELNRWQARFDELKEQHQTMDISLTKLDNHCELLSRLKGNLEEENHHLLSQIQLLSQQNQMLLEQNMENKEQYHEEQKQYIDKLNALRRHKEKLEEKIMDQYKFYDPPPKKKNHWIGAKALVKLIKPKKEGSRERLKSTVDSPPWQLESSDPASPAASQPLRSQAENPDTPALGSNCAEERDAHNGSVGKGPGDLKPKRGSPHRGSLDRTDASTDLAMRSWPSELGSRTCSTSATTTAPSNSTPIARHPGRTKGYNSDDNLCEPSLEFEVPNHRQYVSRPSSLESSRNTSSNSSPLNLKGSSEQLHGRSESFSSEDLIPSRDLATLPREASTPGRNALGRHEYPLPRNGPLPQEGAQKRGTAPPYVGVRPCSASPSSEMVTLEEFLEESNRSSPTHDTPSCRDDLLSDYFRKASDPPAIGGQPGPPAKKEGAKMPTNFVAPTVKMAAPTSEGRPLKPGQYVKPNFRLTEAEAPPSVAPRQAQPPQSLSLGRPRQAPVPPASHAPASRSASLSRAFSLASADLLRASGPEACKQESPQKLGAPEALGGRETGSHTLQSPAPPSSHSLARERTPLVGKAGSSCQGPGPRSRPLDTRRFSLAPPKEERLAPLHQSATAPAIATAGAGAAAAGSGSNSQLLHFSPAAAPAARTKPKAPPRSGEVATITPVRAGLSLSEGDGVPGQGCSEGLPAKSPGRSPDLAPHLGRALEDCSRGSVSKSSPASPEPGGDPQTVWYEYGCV
UniProt O95271: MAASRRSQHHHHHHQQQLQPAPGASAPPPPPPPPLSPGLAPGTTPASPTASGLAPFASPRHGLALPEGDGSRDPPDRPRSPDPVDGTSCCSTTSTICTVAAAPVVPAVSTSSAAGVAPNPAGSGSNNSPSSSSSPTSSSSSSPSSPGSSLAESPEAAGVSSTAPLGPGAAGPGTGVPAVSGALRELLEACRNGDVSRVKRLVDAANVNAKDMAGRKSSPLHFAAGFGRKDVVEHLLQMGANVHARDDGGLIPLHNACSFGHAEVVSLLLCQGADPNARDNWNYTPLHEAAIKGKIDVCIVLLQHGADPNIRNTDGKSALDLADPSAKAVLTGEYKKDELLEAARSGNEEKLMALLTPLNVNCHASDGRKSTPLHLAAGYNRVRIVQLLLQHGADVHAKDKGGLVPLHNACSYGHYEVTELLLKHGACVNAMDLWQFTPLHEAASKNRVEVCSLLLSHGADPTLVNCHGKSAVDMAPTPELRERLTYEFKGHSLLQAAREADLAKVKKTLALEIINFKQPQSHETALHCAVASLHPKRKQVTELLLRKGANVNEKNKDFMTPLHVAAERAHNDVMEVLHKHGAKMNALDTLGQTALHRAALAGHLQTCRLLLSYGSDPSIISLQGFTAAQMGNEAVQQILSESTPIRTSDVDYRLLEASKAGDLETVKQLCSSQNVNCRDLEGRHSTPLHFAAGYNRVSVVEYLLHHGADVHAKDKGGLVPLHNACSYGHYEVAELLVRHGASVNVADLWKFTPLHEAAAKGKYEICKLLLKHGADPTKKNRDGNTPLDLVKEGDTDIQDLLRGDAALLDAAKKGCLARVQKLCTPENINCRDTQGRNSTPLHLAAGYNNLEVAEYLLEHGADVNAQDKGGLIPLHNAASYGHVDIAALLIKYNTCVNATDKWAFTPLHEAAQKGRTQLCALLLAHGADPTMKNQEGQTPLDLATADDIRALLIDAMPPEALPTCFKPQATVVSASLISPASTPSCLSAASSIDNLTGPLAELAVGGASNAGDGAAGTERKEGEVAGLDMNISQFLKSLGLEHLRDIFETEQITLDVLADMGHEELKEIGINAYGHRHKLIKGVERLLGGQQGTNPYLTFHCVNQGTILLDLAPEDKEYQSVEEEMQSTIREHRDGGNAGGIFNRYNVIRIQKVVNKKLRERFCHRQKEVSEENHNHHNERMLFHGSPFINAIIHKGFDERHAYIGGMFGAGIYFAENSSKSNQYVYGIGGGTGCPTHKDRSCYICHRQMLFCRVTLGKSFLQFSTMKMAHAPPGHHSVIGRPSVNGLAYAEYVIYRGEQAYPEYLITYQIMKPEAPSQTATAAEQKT
UniProt O14641: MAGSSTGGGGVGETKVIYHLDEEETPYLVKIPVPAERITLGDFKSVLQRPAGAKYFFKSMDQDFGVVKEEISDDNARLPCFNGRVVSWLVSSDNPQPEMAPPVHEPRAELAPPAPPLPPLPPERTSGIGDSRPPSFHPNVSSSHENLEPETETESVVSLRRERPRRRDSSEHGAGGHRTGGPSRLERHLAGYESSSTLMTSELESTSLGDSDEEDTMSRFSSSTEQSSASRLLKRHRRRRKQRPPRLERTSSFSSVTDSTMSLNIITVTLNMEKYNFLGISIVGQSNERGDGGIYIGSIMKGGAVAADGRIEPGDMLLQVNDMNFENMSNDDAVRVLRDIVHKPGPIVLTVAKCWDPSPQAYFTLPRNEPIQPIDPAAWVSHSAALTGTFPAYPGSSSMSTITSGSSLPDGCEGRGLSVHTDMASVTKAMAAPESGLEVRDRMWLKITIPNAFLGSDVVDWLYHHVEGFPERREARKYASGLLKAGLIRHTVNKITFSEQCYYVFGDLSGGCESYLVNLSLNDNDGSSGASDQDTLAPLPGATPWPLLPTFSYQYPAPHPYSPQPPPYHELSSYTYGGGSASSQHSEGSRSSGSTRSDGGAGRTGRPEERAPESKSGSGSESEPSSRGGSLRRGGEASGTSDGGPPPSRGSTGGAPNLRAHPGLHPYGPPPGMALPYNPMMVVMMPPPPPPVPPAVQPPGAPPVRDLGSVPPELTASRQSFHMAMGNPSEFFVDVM
UniProt O15169: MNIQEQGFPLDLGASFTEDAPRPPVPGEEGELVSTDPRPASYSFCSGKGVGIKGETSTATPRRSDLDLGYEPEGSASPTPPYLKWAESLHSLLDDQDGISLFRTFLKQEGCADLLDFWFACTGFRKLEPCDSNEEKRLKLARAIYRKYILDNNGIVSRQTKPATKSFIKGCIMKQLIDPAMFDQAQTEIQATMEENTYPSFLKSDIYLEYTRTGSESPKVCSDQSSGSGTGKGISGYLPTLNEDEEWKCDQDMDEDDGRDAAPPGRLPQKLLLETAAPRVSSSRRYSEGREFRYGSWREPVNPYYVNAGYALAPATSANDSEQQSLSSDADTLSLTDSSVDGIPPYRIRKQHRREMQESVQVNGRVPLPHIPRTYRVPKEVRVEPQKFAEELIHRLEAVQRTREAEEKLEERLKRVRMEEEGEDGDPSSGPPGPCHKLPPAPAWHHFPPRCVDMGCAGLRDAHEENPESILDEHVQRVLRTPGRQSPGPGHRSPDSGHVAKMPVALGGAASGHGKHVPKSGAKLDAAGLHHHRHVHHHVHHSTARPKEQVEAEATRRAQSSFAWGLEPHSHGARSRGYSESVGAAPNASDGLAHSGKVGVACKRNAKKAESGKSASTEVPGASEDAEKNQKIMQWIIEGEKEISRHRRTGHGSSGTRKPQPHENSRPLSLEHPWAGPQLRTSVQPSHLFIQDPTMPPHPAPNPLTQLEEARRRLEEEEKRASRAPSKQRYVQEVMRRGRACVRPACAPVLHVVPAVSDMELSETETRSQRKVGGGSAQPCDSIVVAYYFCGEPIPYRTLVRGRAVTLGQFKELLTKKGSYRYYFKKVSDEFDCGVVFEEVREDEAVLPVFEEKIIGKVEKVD
UniProt P49674: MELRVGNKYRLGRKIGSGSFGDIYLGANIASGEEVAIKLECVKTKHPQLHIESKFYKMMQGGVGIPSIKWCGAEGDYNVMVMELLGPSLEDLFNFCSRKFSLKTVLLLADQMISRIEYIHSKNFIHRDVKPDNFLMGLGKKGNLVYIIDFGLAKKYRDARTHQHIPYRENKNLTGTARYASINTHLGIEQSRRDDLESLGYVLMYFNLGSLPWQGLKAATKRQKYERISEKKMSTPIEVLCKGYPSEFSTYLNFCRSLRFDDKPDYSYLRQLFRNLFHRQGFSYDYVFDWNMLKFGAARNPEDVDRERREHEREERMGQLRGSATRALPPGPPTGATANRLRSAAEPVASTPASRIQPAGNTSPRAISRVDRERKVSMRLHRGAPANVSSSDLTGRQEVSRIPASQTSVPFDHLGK

T1: TurboID-DVL3 WT (human) (UniProt Q92997)
T1 sequence: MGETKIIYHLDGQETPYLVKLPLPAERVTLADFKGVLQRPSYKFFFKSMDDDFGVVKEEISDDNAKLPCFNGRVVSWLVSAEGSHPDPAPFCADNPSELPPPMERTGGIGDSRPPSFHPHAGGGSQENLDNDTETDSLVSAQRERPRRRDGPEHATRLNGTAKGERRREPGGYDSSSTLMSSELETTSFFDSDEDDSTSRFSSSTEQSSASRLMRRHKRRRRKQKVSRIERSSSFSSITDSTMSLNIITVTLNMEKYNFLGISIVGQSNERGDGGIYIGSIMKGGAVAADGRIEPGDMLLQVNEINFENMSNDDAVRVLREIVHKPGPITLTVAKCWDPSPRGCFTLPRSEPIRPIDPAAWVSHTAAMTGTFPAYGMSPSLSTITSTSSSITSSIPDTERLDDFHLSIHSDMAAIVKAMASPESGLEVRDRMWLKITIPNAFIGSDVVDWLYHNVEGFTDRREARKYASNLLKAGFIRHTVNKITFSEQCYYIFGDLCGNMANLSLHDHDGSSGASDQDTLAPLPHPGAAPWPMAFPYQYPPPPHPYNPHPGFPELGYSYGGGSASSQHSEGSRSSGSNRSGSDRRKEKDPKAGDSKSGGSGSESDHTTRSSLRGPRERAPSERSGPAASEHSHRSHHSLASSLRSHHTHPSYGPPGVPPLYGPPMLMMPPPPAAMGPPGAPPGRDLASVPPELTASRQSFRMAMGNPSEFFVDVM

B1: VANGL1 (protein, UniProt Q8TAA9 1-524)
chain: MDTESTYSGYSYYSSHSKKSHRQGERTRERHKSPRNKDGRGSEKSVTIQPPTGEPLLGNDSTRTEEVQDDNWGETTTAITGTSEHSISQEDIARISKDMEDSVGLDCKRYLGLTVASFLGLLVFLTPIAFILLPPILWRDELEPCGTICEGLFISMAFKLLILLIGTWALFFRKRRADMPRVFVFRALLLVLIFLFVVSYWLFYGVRILDSRDRNYQGIVQYAVSLVDALLFIHYLAIVLLELRQLQPMFTLQVVRSTDGESRFYSLGHLSIQRAALVVLENYYKDFTIYNPNLLTASKFRAAKHMAGLKVYNVDGPSNNATGQSRAMIAAAARRRDSSHNELYYEEAEHERRVKKRKARLVVAVEEAFIHIQRLQAEEQQKAPGEVMDPREAAQAIFPSMARALQKYLRITRQQNYHSMESILQHLAFCITNGMTPKAFLERYLSAGPTLQYDKDRWLSTQWRLVSDEAVTNGLRDGIVFVLKCLDFSLVVNVKKIPFIILSEEFIDPKSHKFVLRLQSETSV
B2: TNKS2 (enzyme, UniProt Q9H2K2 1-1166)
chain: MSGRRCAGGGAACASAAAEAVEPAARELFEACRNGDVERVKRLVTPEKVNSRDTAGRKSTPLHFAAGFGRKDVVEYLLQNGANVQARDDGGLIPLHNACSFGHAEVVNLLLRHGADPNARDNWNYTPLHEAAIKGKIDVCIVLLQHGAEPTIRNTDGRTALDLADPSAKAVLTGEYKKDELLESARSGNEEKMMALLTPLNVNCHASDGRKSTPLHLAAGYNRVKIVQLLLQHGADVHAKDKGDLVPLHNACSYGHYEVTELLVKHGACVNAMDLWQFTPLHEAASKNRVEVCSLLLSYGADPTLLNCHNKSAIDLAPTPQLKERLAYEFKGHSLLQAAREADVTRIKKHLSLEMVNFKHPQTHETALHCAAASPYPKRKQICELLLRKGANINEKTKEFLTPLHVASEKAHNDVVEVVVKHEAKVNALDNLGQTSLHRAAYCGHLQTCRLLLSYGCDPNIISLQGFTALQMGNENVQQLLQEGISLGNSEADRQLLEAAKAGDVETVKKLCTVQSVNCRDIEGRQSTPLHFAAGYNRVSVVEYLLQHGADVHAKDKGGLVPLHNACSYGHYEVAELLVKHGAVVNVADLWKFTPLHEAAAKGKYEICKLLLQHGADPTKKNRDGNTPLDLVKDGDTDIQDLLRGDAALLDAAKKGCLARVKKLSSPDNVNCRDTQGRHSTPLHLAAGYNNLEVAEYLLQHGADVNAQDKGGLIPLHNAASYGHVDVAALLIKYNACVNATDKWAFTPLHEAAQKGRTQLCALLLAHGADPTLKNQEGQTPLDLVSADDVSALLTAAMPPSALPSCYKPQVLNGVRSPGATADALSSGPSSPSSLSAASSLDNLSGSFSELSSVVSSSGTEGASSLEKKEVPGVDFSITQFVRNLGLEHLMDIFEREQITLDVLVEMGHKELKEIGINAYGHRHKLIKGVERLISGQQGLNPYLTLNTSGSGTILIDLSPDDKEFQSVEEEMQSTVREHRDGGHAGGIFNRYNILKIQKVCNKKLWERYTHRRKEVSEENHNHANERMLFHGSPFVNAIIHKGFDERHAYIGGMFGAGIYFAENSSKSNQYVYGIGGGTGCPVHKDRSCYICHRQLLFCRVTLGKSFLQFSAMKMAHSPPGHHSVTGRPSVNGLALAEYVIYRGEQAYPEYLITYQIMRPEGMVDG

target: T1, TurboID-DVL3 WT (human); test: proximity labelling

binding | Molecule
binds | CCDC88C/Daple (from UniProt Q9P219 1-2028)
binds | TNKS (from UniProt O95271 1-1327) (enzyme)
binds | DVL2 (from UniProt O14641 1-736)
binds | AXIN1 (from UniProt O15169 1-862)
binds | CK1ε (CSNK1E) (from UniProt P49674 1-416) (enzyme)

target: T1, TurboID-DVL3 WT (human); test: proximity labelling; remark: another data set of the same source

binding | Molecule
binds | B1
binds | B2
